Test results taken from article doi:10.1101/2022.04.26.489478.
No constants are given. Whether binding was seen depends on the method and setting. Some binding calls cover weakened binding; strength is not graded here. Tags and fused reporters may be left off the sequences shown.

Chains of the proteins cited; added tags and fusions are not shown. Residues count along the entry.
UniProt O95166, residues 3-116: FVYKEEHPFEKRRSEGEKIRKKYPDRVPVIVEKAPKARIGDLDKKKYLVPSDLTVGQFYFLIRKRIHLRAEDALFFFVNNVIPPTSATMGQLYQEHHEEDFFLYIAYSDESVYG

Biological target: T1, mCherry tagged HsC53 (human) (UniProt Q96JB5)
T1 sequence: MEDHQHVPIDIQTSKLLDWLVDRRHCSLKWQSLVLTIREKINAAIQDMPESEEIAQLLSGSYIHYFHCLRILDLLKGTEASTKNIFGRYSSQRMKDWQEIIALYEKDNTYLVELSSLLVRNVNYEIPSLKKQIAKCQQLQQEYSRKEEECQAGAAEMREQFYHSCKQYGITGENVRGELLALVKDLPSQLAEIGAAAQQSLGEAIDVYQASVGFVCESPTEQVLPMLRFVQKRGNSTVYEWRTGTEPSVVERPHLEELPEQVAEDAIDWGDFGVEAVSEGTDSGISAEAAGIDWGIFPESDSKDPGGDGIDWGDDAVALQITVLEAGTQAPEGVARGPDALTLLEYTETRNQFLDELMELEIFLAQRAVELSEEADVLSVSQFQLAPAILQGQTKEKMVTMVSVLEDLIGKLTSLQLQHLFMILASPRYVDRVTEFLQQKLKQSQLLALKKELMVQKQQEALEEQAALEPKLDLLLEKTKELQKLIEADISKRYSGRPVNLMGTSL
Assay: microscopy-based on-bead protein-protein interaction assay

Substance: GABARAP (from UniProt O95166 3-116)
- binding: binds
